# The whole screen tested about 320,000 compounds, of which about 620 (0.19%) were called active. Inconclusive means that the source gave no clear call. Such entries were picked first, then a sample of the others. No stated cut-off is given here; in the data, active means activation above about 80%; inconclusive means between about 30% and that limit; inactive means weaker than that.
# Chains of the proteins cited; added tags and fusions are not shown.
# UniProt Q8NER1, whole entry, looked up: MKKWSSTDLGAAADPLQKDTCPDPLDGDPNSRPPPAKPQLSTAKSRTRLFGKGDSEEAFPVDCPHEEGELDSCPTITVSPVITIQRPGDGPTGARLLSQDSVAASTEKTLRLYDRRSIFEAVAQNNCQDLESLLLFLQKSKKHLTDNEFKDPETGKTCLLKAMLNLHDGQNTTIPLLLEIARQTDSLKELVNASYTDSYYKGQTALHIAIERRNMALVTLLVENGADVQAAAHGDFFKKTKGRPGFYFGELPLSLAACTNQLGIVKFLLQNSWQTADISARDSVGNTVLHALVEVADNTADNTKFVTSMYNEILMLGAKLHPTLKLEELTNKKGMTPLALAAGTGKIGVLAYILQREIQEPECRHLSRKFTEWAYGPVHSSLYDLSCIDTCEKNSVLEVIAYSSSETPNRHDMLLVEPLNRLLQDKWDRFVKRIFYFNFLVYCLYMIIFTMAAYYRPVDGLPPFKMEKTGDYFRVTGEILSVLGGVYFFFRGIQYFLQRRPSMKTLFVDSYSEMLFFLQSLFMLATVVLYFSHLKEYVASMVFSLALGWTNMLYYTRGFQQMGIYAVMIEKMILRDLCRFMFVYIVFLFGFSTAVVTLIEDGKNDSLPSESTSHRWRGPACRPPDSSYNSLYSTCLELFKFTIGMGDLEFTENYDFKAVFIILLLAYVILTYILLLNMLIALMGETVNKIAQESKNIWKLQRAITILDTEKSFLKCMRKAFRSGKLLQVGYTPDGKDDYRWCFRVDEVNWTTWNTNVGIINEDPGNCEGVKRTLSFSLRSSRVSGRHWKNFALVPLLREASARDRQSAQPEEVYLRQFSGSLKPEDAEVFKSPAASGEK
# Biological target: Transient receptor potential cation channel subfamily V member 1 (Homo sapiens) (UniProt Q8NER1)
# Experiment: HTS Assay for Compounds that Act as Agonists of the Vanilloid Receptor 1; further: 0% is about no effect
# Conditions: TRPV1-expressing cells, Fluo-8 calcium influx, agonist mode; at 8.33 µM, hits give high values
# Summary of the method: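 TRPV1-expressing cells were cultured overnight at 35.5C and loaded with Fluo-8 calcium dye for 40 to 90 min at room temperature. After a 10 s baseline, compound was added and calcium influx was read kinetically for 3 min (ex 480/em 520 nm).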
row,SMILES,activation
1,Cc1ccc(-c2csc(Nc3ccc(C(=O)O)cc3)[n+]2Cc2ccccc2)cc1,inactive: -2.78%
2,CCOC(=O)c1c(CN(CC)CC)oc2cc(Br)c(O)cc12,inconclusive: 44.7%
3,CCc1c(C(=O)NNC(=S)NC2CCCCC2)csc1C,inconclusive: 31.4%
4,CCCCn1c(N)c(N(CCC(C)C)C(=O)C2CC(=O)N(c3ccc4c(c3)OCCO4)C2)c(=O)[nH]c1=O (stereo unspecified),inactive: 0.965%
5,Clc1ccc(CN2C3=NCCCN3c3ccccc32)cc1Cl,inactive: -0.838%
6,Cc1ccc(S(=O)(=O)c2c(C)nn(C(C)(C)C)c2OC(=O)c2ccco2)cc1,inconclusive: 36.7%
7,COc1ccc(-c2[nH]c(-c3ccc(F)cc3)nc2SCC(=O)NC2CCCC2)cc1,inconclusive: 49.8%
8,O=C(Nc1ncc(Cc2ccccc2)s1)C1COc2ccccc2O1 (stereo unspecified),inactive: 17.5%
9,O=c1ccc(-c2ccccc2)nn1Cc1ccc(F)cc1Cl,inconclusive: 47.3%
10,CCOc1ccccc1NC(=O)Nc1ccc(Cl)cc1,inactive: 5.77%
11,C[C@H](NC(=O)OC(C)(C)C)C(=O)NCC1CCC(C(=O)N[C@@H](Cc2ccccc2)C(=O)O)CC1 (stereo partly specified),inactive: 6.37%
12,O=C(CNS(=O)(=O)c1ccc2ccccc2c1)OCc1csc(-c2ccccc2)n1,inactive: -3.71%
13,COc1ccc(NC(=O)NCc2ccccc2F)cc1OC,inconclusive: 52.3%
14,O=C(NNC(=O)C1CC2CCC1C2)c1sc2ccccc2c1Cl (stereo unspecified),inconclusive: 55.9%
15,Cc1ccc(Cn2c(=S)[nH]c3ccccc3c2=O)cc1,inconclusive: 37.3%
16,Cc1ccc(-c2nc3ccccc3s2)cc1NC(=O)c1ccc2c(c1)OCO2,inactive: 18.2%
17,CN1CCN(c2ccc(C(F)(F)F)cc2NC(=O)Nc2ccccc2)CC1,inconclusive: 33.7%
18,CN1CCCC(CN2c3ccccc3Sc3ccccc32)C1 (stereo unspecified),inactive: 3.76%
19,CCOC(=O)CSc1nc2sc3c(c2c(=O)n1-c1ccc(OCC)cc1)CCN(C)C3,inactive: 5.64%
20,O=c1c2cnn(-c3ccccc3)c2ncn1Cc1ccccc1F,inconclusive: 42.3%
21,CCN(Cc1ccccc1)C(=O)C1CCN(Cc2ccc(SC)cc2)CC1,inactive: 3.47%
22,Cn1cccc1C(=O)C(=O)Nc1ccc(Cl)cc1,inconclusive: 55.4%
23,CCOC(=O)N1CCN(C(=O)c2cnc(Nc3ccccc3OC)c3ccccc23)CC1,inactive: -1.16%

# Structural class, those above with a halogen (ten)
row,SMILES,activation
2,CCOC(=O)c1c(CN(CC)CC)oc2cc(Br)c(O)cc12,inconclusive: 44.7%
5,Clc1ccc(CN2C3=NCCCN3c3ccccc32)cc1Cl,inactive: -0.838%
7,COc1ccc(-c2[nH]c(-c3ccc(F)cc3)nc2SCC(=O)NC2CCCC2)cc1,inconclusive: 49.8%
9,O=c1ccc(-c2ccccc2)nn1Cc1ccc(F)cc1Cl,inconclusive: 47.3%
10,CCOc1ccccc1NC(=O)Nc1ccc(Cl)cc1,inactive: 5.77%
13,COc1ccc(NC(=O)NCc2ccccc2F)cc1OC,inconclusive: 52.3%
14,O=C(NNC(=O)C1CC2CCC1C2)c1sc2ccccc2c1Cl (stereo unspecified),inconclusive: 55.9%
17,CN1CCN(c2ccc(C(F)(F)F)cc2NC(=O)Nc2ccccc2)CC1,inconclusive: 33.7%
20,O=c1c2cnn(-c3ccccc3)c2ncn1Cc1ccccc1F,inconclusive: 42.3%
22,Cn1cccc1C(=O)C(=O)Nc1ccc(Cl)cc1,inconclusive: 55.4%

# Following part:

row,SMILES,activation
1,COc1ccc(CNC(=O)c2ccc3c(=O)n4c(nc3c2)CCCCC4)cc1OC,inconclusive: 43.3%
2,CC(C)CCN(C(=O)Nc1ccccc1)C(C)c1cccs1 (stereo unspecified),inconclusive: 50.8%
3,CC(C)OC(=O)c1c(-c2ccccc2)c(-c2ccccc2)nn(C)c1=O,inconclusive: 59.2%
4,O=C(C(=O)N1CCCCC1)c1c(-c2ccccc2)[nH]c2ccccc12,inconclusive: 50.6%
5,O=C(Nn1c(C2CCCCC2)nc2ccccc2c1=O)c1ccc([N+](=O)[O-])cc1,inconclusive: 37.2%
6,CC1CCC2(CC1)NC(=O)N(CC(=O)Nc1ccc3c(c1)CCC3)C2=O (stereo unspecified),inconclusive: 38.2%
7,Cc1ccc2oc(NC(=O)N3CCOCC3)cc(=O)c2c1,inactive: 3.64%
8,Cc1ccccc1C(=O)NC(=S)Nc1ccccc1C(F)(F)F,inconclusive: 32.7%
9,Cc1cccc(OCCCC(=O)Nc2ccc(Br)cc2)c1,inconclusive: 41.2%
10,CSCC[C@H](NC(=O)COc1ccc(Cl)cc1)c1nc2ccccc2[nH]1,inconclusive: 48.8%
11,O=C1C=C(N2CCOCC2)C2(CCCCC2)O1,inconclusive: 40.2%
12,c1ccc2c(c1)CCN(c1nc(CN3CCOCC3)nc3sc4c(c13)CCCC4)C2,inconclusive: 46.5%
13,CCOc1ccccc1N1CCN(C(=O)c2cc(-c3cc(OC)ccc3OC)nc3ccccc23)CC1,inconclusive: 33.6%
14,CCN(CC)c1ccc(/C=C2/C(=O)c3ccc(C(=O)O)cc3C2=O)cc1,inconclusive: 46.7%
15,O=C(NCCN1CCN(Cc2ccccc2)CC1)Nc1cc(Cl)cc(Cl)c1,inactive: 1.88%
16,NS(=O)(=O)c1ccc(NC(=O)COc2cccc3ccccc23)cc1,inconclusive: 35.8%
17,O=C(COC(=O)c1ccc(S(=O)(=O)N2CCCC2)cc1)NCc1ccc(F)cc1,inconclusive: 35.8%
18,CC(C)CC1Nc2ncnc(N3CCN(c4ccccc4)CC3)c2N(Cc2ccc(Cl)cc2)C1=O (stereo unspecified),inconclusive: 43.2%
19,S=C(NCCc1ccccc1)Nc1cccc2cnccc12,inconclusive: 46.2%
20,CCOC(=O)C1C(=O)C=C(c2ccc(C)cc2)CC1c1ccco1 (stereo unspecified),inconclusive: 36.5%
21,CCO/C(=C/c1sc2ccc(OC)cc2[n+]1CCCS(=O)(=O)[O-])CC,inactive: 0.171%
22,CSc1cccc(NC(=O)Nc2ccc(Cl)cc2)c1,inconclusive: 39.1%
23,O=C(Cc1ccccc1)Nc1ccc(NC(=O)C2CC2)nc1,inactive: -2.37%

# Single values from above.
# CC(C)CC1Nc2ncnc(N3CCN(c4ccccc4)CC3)c2N(Cc2ccc(Cl)cc2)C1=O (stereo unspecified) | activation: inconclusive: 43.2%
# CC1CCC2(CC1)NC(=O)N(CC(=O)Nc1ccc3c(c1)CCC3)C2=O (stereo unspecified) | activation: inconclusive: 38.2%

# Later entries

row,SMILES,activation
1,CCOC(=O)c1[nH]c2ccc(OC)cc2c1NC(=O)CN1CCc2ccccc2C1,inconclusive: 47.2%
2,OCC1(Cc2cccc(Cl)c2)CCCN(Cc2ccc(F)c(F)c2)C1 (stereo unspecified),inconclusive: 47.8%
3,COc1ccc(CC(=O)OCC(=O)Nc2ccc(F)cc2)cc1,inconclusive: 33.6%
4,CN(C)c1ccc(/C=C2\SC(=O)N(CCc3nnc(N)s3)C2=O)cc1,inconclusive: 37.6%
5,O=C(Nc1ccc(Cl)c(Cl)c1)Nc1ccccc1O,inconclusive: 73%
6,CC(=O)c1cccc(N(C(=O)c2csnn2)C(C(=O)NC2CCCC2)c2ccccc2)c1 (stereo unspecified),inactive: 1.11%
7,O=C(Nc1ccc(Cl)cc1)Nc1nnc(SCc2ccccc2)s1,inactive: 3.87%
8,COc1ccc2cc(-c3ccccc3)c(=O)oc2c1,inactive: 9.33%
9,CC1CCCC(NC(=O)CSC2CCCCC2)C1C (stereo unspecified),inconclusive: 32.3%
10,COc1ccc(NC(=O)/C=C/c2cc(Br)ccc2OC)cc1,inconclusive: 41.5%
11,COc1ccc(CCCC(=O)N/N=C\c2cccs2)cc1,inconclusive: 31.4%
12,CC(C)CCNC(=O)C(c1ccc(O)cc1)N(C(=O)C1COc2ccccc2O1)c1cccc(O)c1 (stereo unspecified),inconclusive: 30.8%
13,O=C(Nc1ccc(OC(F)F)c(Cl)c1)c1ccccn1,inconclusive: 51.9%
14,O=C(NN=C1CCC(=NNC(=O)c2ccccn2)CC1)c1ccccn1,inconclusive: 46.6%
15,COc1ccc(Cl)cc1C(=O)N1CCC2(CC1)CC(=O)c1ccccc1O2,inconclusive: 35.5%
16,COc1ccc(N(C(=O)Cc2cccs2)C(C(=O)NC2CCCC2)c2ccncc2)cc1OC (stereo unspecified),inactive: -0.609%
17,CC1CCCC(C)N1C(=O)CSc1nc2ccccc2s1 (stereo unspecified),inconclusive: 36.2%
18,COc1ccc(NC(=O)c2ccc(COc3ccccc3)o2)c(OC)c1,inactive: 9.36%
19,COc1ccc(C(=O)NCCSC2CCCCC2)cc1,inconclusive: 45.1%
20,O=S1(=O)CCN2C=C(Br)C=C(Br)C2=N1,inactive: 0.264%
21,CC(C)NC(=S)NC(c1ccccc1)(c1ccccc1)c1ccccc1,inconclusive: 37.1%
22,CCOC(=O)C1CCN(C(=O)COc2ccc(Br)cc2Br)CC1,inconclusive: 31.4%
23,CCOC(=O)/C(=C\C=C1/Sc2ccccc2N1CC)C(C)=O,inconclusive: 44.6%

row,SMILES,activation
1,O=C(Nc1cccc(O)c1)C1CC(c2cccc(Br)c2)=NO1 (stereo unspecified),inconclusive: 45.6%
2,O=C(CSC(=S)N1CCSCC1)c1ccc(Cl)cc1,inconclusive: 35.5%
3,CCOC(=O)C1(CCCc2ccccc2)CCN(C(=O)c2ccoc2)CC1,inconclusive: 41.4%
4,CCCN1C(=O)/C(=C\C=C2/Sc3ccccc3N2CCO)SC1=S,inactive: 6.43%
5,O=C(COC(=O)CC12CC3CC(CC(C3)C1)C2)Nc1ncc(Cl)cc1Cl,inconclusive: 41.9%
6,Cc1ccc2c(c1)C(c1ccncc1)=NNC(c1ccccc1)=N2,inconclusive: 42.3%
7,CN1CCN(c2ccccc2NC(=O)c2ccc([N+](=O)[O-])o2)CC1,inactive: 2.57%
8,COc1ccc(C(=O)CCc2ccccc2)cc1,inconclusive: 39.3%
9,CSCc1ccc(C(=O)NCc2ccc(C)cc2)cc1,inconclusive: 39.8%
10,Cc1ccc(NC(=O)C2COc3ccccc3O2)cc1S(=O)(=O)N1CCOCC1 (stereo unspecified),inconclusive: 35.5%
11,Cc1ccc(-c2ccc(C3C(C#N)=C(N)Oc4n[nH]c(C)c43)o2)cc1 (stereo unspecified),inactive: 1.82%
12,O=C(NCCCn1ccnc1)Nc1cccc(Cl)c1,inactive: 4.18%
13,Cc1ccccc1-c1nc(-c2ccccn2)no1,inactive: 5.34%
14,CC(NC(=O)c1cc2ccccc2o1)c1cccs1 (stereo unspecified),inconclusive: 37.2%
15,CCN(c1ccccc1)S(=O)(=O)c1ccc(NC(=O)c2nc(S(C)(=O)=O)ncc2Cl)cc1,inconclusive: 36.4%
16,CCOC(=O)c1cnc2ccc(OCC)cc2c1NCc1ccccc1OC,inconclusive: 51.3%
17,O=C(Nc1nc2ccccc2[nH]1)c1ccc(F)cc1,inactive: 9.27%
18,O=C(CN1C(=O)NC2(CCCCC2)C1=O)N1CCN(S(=O)(=O)c2ccc(F)c(F)c2F)CC1,inactive: -1.67%
19,O=C(OCC(=O)c1ccc[nH]1)c1ccc(S(=O)(=O)N2CCCCCC2)cc1,inactive: 8%
20,CC1(C(=O)NC2CCCC2)CCC(=O)N1Cc1ccccc1Cl (stereo unspecified),inactive: 0.584%
21,Cc1ccc2c(CC(=O)Nc3c(C)n(C)n(-c4ccccc4)c3=O)coc2c1,inactive: -1.16%
22,Cc1ccc(S[C@@H](CCN2CC[C@H](C(C)(C)C)CCC2=O)c2ccccc2)cc1,inconclusive: 57.3%
